# Measurements taken from PubChem BioAssay AID504648 (National Center for Advancing Translational Sciences (NCATS), 2011).
# Out of some 390,000 compounds screened, about 610 (0.16%) were called active. Inconclusive results, whose numbers are uncertain, are shown with a selection of clear calls. Calls come from the whole dose curve; as a rule, active = well fitted inhibition curve with a large enough effect; inconclusive = small, poorly fitted or top-dose-only effect, or effect the other way, or another doubt; inactive = no such curve, though single readings can be large or run the other way. Potencies beside an inconclusive call are fits to weak or partial responses and may not hold up.
# Assay: Nrf2 qHTS screen for inhibitors: counterscreen for cytotoxicity
# Conditions: A549 ARE-Fluc cells, CellTiter-Fluor viability, 18-24 h; series mostly up to 46 µM
# Summary of the method: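 Cytotoxicity counterscreen: CellTiter-Fluor fluorescence was measured in A549 ARE_Fluc cells after 18-24 h of compound exposure in a concentration series. The subsequent BugLite luminescent read reports ARE-luciferase activity.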
# Potency is the fitted concentration of half-maximal effect.
row,Compound,Potency
1,Cc1onc(-c2ccccc2Cl)c1C(=O)O/N=C(\N)c1ccccc1,"inconclusive: 18.4 µM [falling, partial curve, poor fit]"
2,Cc1ccccc1CN1CCN(C(=O)c2cc(-c3ccncc3)nc3ccccc23)CC1,inactive
3,Cc1ccc(NC(=O)CSc2nnc(COc3ccc(C#N)cc3)n2-c2ccccc2)cc1C,inactive
4,O=C(NCc1nnc2c(C(F)(F)F)cc(Cl)cn12)c1ccco1,inactive
5,CC[C@H]1CN2CCc3cc(OC)c(OC)cc3[C@@H]2C[C@@H]1C[C@H]1NCCc2cc(OC)c(OC)cc21,"inconclusive: 0.411 µM [falling, full curve]"
6,CCOC(=O)c1sc2nc(C)nc(N3CCN(c4ncccn4)CC3)c2c1C,"inconclusive: 2.91 µM [falling, partial curve, poor fit]"
7,CCOC(=O)c1ccc(N2CCN(c3cccc(OC)c3)CC2)c(NC(=O)Nc2ccc(OCC)cc2)c1,"inconclusive: 29.1 µM [falling, single point]"
8,COc1ccc(/C=C/C(=O)c2ccc3c(c2)OCCO3)cc1[N+](=O)[O-],"inconclusive: 29.1 µM [falling, single point]"
9,C=CCn1c(CCNC(=O)c2ccc(Cl)c(Cl)c2)nnc1SCCOc1ccc(OC)cc1,"inconclusive: 29.1 µM [falling, single point]"
10,CCOc1cccc(NC(=O)/C(C#N)=C\c2cn(CC(=O)O)c3ccccc23)c1,"inconclusive: 13 µM [falling, partial curve]"
11,CCCOc1ccccc1C1CC(=O)Nc2cc3c(cc21)OCO3 (stereo unspecified),"inconclusive: 5.8 µM [falling, full curve, poor fit]"
12,CCn1c(SCC(=O)Nc2ccc(OCc3ccccc3)cc2)nnc1-c1ccco1,"inconclusive: 20.6 µM [falling, single point]"
13,Cc1ccc(/C=C2\SC(=S)N(NS(=O)(=O)c3ccc(C)cc3)C2=O)cc1,inactive
14,COc1ccc(OC)c(C2=Nn3c(nnc3-c3ccco3)SC2)c1,"inconclusive: 0.13 µM [falling, full curve, poor fit]"
15,CC(=O)c1cccc(NC(=O)/C=C/c2ccc([N+](=O)[O-])s2)c1,"inconclusive: 29.1 µM [falling, single point]"
16,Cc1ccc(S(=O)(=O)Cc2ccc(C(=O)N3CCN(c4cccc(C)c4C)CC3)o2)cc1,"inconclusive: 5.8 µM [falling, partial curve, poor fit]"
17,O=C(Cn1c(=O)n(Cc2ccco2)c(=O)c2ccccc21)Nc1ccc(Cl)cc1Cl,inactive
18,Cc1sc2ncnc(SCC(=O)N3CCOCC3)c2c1C,"inconclusive: 25.9 µM [activator, partial curve]"
19,CC(C)Cn1c(N)c(S(=O)(=O)c2cccs2)c2nc3ccccc3nc21,inactive
20,CN(C)c1cccc(C(=O)NNC(=O)CSc2ccccc2)c1,inactive
21,COc1ccc(OCCNc2cc(Cl)ccc2[N+](=O)[O-])cc1,"inconclusive: 16.4 µM [falling, single point]"

# Filtered by structure, the compounds so far with a Cl atom.
row,Compound,Potency
1,Cc1onc(-c2ccccc2Cl)c1C(=O)O/N=C(\N)c1ccccc1,"inconclusive: 18.4 µM [falling, partial curve, poor fit]"
4,O=C(NCc1nnc2c(C(F)(F)F)cc(Cl)cn12)c1ccco1,inactive
9,C=CCn1c(CCNC(=O)c2ccc(Cl)c(Cl)c2)nnc1SCCOc1ccc(OC)cc1,"inconclusive: 29.1 µM [falling, single point]"
17,O=C(Cn1c(=O)n(Cc2ccco2)c(=O)c2ccccc21)Nc1ccc(Cl)cc1Cl,inactive
21,COc1ccc(OCCNc2cc(Cl)ccc2[N+](=O)[O-])cc1,"inconclusive: 16.4 µM [falling, single point]"

# Next part

row,Compound,Potency
1,COCCCNC(=O)c1c[nH]c2ccc(S(=O)(=O)N3CCc4ccccc43)cc2c1=O,"inconclusive: 32.6 µM [falling, partial curve, poor fit]"
2,Cc1ccc(NC(=O)ON=C2CCCC2)cc1,"inconclusive: 20.6 µM [falling, single point]"
3,Nc1c(C(=O)Nc2nc3ccccc3s2)sc2nc(-c3cccs3)ccc12,"inconclusive: 29.1 µM [falling, single point]"
4,CCc1ccc2[nH]c(=O)c(CN(Cc3cccs3)Cc3nnnn3Cc3ccccc3)cc2c1,"inconclusive: 25.9 µM [falling, single point]"
5,Cc1cc(/C=C2/SC(=S)N(c3cccc(C(F)(F)F)c3)C2=O)c(C)n1-c1cccnc1,"inconclusive: 14.6 µM [falling, partial curve, poor fit]"
6,O=C(CSc1nnc(Cn2nnc3ccccc32)o1)N(Cc1ccc(F)cc1)c1ccccc1,"inconclusive: 10.3 µM [falling, partial curve, poor fit]"
7,COC(=O)c1cc2sc(C)cc2n1CC(=O)Nc1ccc(C)c(C)c1,inactive
8,N#CC1c2ccccc2C=CN1C(=O)N(c1ccccc1)c1ccccc1 (stereo unspecified),"inconclusive: 29.1 µM [falling, single point]"
9,CC(=O)Nc1ccc(N=C(C2=C(O)c3ccccc3C2=O)c2ccccc2)cc1,active: 20.6 µM
10,CC(C)CC(COCc1ccc(C(F)(F)F)cc1)N1CCN(C(=O)c2ccc(C(F)(F)F)cc2)CCC1=O (stereo unspecified),"inconclusive: 29.1 µM [falling, partial curve, poor fit]"
11,NC1=NC[C@H](Cc2ccccc2)N1CC1CCCCC1,inactive
12,CC(=O)c1c(N2CCN(Cc3ccccc3)CC2)nc(=S)n(Cc2ccccc2)c1C,"inconclusive: 23.1 µM [falling, partial curve, poor fit]"
13,CN1CCc2c(sc3c2C(=O)NC(c2ccccc2)N3)C1 (stereo unspecified),inactive
14,COC(=O)c1ccsc1NC(=O)CS(=O)(=O)c1ccccc1,inactive
15,CCOC(=O)c1c(C)[nH]c(C=Nc2ccc(OC)cc2)c1O,"inconclusive: 16.4 µM [falling, partial curve, poor fit]"
16,O=[N+]([O-])c1ccc(N/N=C2\CC3CC=CC23)cc1 (stereo unspecified),"inconclusive: 16.4 µM [falling, single point]"
17,CN(Cc1nccn1C)C(=O)c1cc(COc2cccc(C(F)(F)F)c2)on1,"inconclusive: 20.6 µM [activator, partial curve, poor fit]"
18,C[C@@H]1CCCCCCCCC(=O)OCCN(C(=O)OC(C)(C)C)[C@H](C)CCCCCCCCC(=O)OCCN1C(=O)OC(C)(C)C,"inconclusive: 32.6 µM [falling, partial curve, poor fit]"
19,N=C(N)SCCc1cnc[nH]1,"inconclusive: 23.1 µM [falling, partial curve, poor fit]"
20,CC(C)=C1C2CCC1C1C(=O)N(c3nc(-c4ccc(F)cc4)c(C)s3)C(=O)C21 (stereo unspecified),"inconclusive: 32.6 µM [falling, partial curve, poor fit]"
